Patent US20090011007A1, “Pharmaceutical Compositions Containing Mixtures of Polymers and Active Agents Poorly Soluble in Water” (Evonik Roehm GmbH, priority 2006, published 2009)
At least one compound was matched to its structure with a doubt left.

Test: Determination of the solubility of felodipine at pH 1.2 (orbital shaker, 24 hours, SGFsp, HPLC)
Format: physicochemical
Details: felodipine alone, unformulated; determined per b154 over 24 hours in SGFsp pH 1.2 at 37° C.
Protocol: Felodipine has a solubility in water of <1 mg/l […]. The solubility for felodipine was determined for comparison in a medium buffered to pH 1.2 (SGFsp pH 1.2). For this purpose, 10 mg were kept in motion at 37° C. on an orbital shaker in 20 ml of medium for 24 hours. The concentration was determined by means of HPLC. For felodipine alone, without inventive formulation, a solubility of 0.5 mg/l was determined.

Question: Which “Dissolved active ingredient [g/l] after 120 min at pH 1.2” value does the source give for `CCOC(=O)C1=C(C)NC(C)=C(C(=O)OC)C1c1cccc(Cl)c1Cl` (stereo not shown) [felodipine alone, felodipine] here?
Answer: Its value is 0.0005 g/l.
